Test results: EP4417607A1, “HETEROCYCLIC COMPOUND AS SOS1 INHIBITOR AND USES THEREOF” (Nanjing Zaiming Pharmaceutical Co., Ltd., priority 2021, dated 2023)
At least one compound was matched to its structure with a doubt left.

Tested on: DLD-1 cell subcutaneous tumor model
Assay: Growth inhibition in DLD-1 cell subcutaneous tumor model
Format: in vivo, NU/NU mice
Conditions: 15 mg/kg orally twice a day, P < 0.0001
Description: • Human colorectal cancer DLD-1 cell: ATCC, CCL-221 • RPMI-1640 culture medium: Gibco, REF: 61870-036 • Fetal bovine serum: Gibco, REF: 10091-148 • 0.25% trypsin-EDTA: Gibco, REF: 25200-072 • D-PBS (phosphate-buffered saline without calcium and magnesium ions): Hyclone, Cat. No.: SH30256.01 • Matrigel: Corning, Cat. No.: 356237
• Animal information: NU/NU mice, female, aged 6-7 weeks, 24-30 g, purchased from Beijing Vital River Biotechnology Co., Ltd. • Cell culture: human colon cancer cell strain DLD-1 was cultured in vitro under the conditions of RPMI-1640 (cell culture medium) added with 10% fetal bovine serum and 1% Pen Strep (Gibco penicillin-streptomycin diabody), and an incubator at 37 °C with 5% CO2. The cells were digested with a 0.25% trypsin-EDTA digestive solution twice a week for passaging as per conventional practice. When cell confluence was 80%-90% and a required amount was achieved, the cells were collected and counted. […]
Tumor diameters were measured twice weekly using a vernier caliper. The tumor volume was calculated using the following formula: V = 0.5a × b^2, where a and b represent the long diameter and short diameter of the tumor, respectively. Mouse body weight was measured twice weekly.
The anti-tumor therapeutic effect of the compound was evaluated by tumor growth inhibition rate TGI (%). […]

## [2H][C@](C)(Nc1nc(C)nc2c(N3CCOCC3)c(=O)n(C3(CF)CC3)cc12)c1cccc(C(F)F)c1F [Example 55, (R)-4-((1-(3-(difluoromethyl)-2-fluorophenyl)ethyl-1-d)amino)-6-(1-(fluoromethyl)cyclopropyl)-2-methyl-8-morpholinylpyrido[4,3-d]pyrimidine-7(6H)-one]
  inhibitory effect on tumor growth: significant inhibitory effect on tumor growth
